Consider one substance from publication PMC10789758.

By UniProt entry, the sequences of proteins in these tests, tags left out.
UniProt Q8IWV8: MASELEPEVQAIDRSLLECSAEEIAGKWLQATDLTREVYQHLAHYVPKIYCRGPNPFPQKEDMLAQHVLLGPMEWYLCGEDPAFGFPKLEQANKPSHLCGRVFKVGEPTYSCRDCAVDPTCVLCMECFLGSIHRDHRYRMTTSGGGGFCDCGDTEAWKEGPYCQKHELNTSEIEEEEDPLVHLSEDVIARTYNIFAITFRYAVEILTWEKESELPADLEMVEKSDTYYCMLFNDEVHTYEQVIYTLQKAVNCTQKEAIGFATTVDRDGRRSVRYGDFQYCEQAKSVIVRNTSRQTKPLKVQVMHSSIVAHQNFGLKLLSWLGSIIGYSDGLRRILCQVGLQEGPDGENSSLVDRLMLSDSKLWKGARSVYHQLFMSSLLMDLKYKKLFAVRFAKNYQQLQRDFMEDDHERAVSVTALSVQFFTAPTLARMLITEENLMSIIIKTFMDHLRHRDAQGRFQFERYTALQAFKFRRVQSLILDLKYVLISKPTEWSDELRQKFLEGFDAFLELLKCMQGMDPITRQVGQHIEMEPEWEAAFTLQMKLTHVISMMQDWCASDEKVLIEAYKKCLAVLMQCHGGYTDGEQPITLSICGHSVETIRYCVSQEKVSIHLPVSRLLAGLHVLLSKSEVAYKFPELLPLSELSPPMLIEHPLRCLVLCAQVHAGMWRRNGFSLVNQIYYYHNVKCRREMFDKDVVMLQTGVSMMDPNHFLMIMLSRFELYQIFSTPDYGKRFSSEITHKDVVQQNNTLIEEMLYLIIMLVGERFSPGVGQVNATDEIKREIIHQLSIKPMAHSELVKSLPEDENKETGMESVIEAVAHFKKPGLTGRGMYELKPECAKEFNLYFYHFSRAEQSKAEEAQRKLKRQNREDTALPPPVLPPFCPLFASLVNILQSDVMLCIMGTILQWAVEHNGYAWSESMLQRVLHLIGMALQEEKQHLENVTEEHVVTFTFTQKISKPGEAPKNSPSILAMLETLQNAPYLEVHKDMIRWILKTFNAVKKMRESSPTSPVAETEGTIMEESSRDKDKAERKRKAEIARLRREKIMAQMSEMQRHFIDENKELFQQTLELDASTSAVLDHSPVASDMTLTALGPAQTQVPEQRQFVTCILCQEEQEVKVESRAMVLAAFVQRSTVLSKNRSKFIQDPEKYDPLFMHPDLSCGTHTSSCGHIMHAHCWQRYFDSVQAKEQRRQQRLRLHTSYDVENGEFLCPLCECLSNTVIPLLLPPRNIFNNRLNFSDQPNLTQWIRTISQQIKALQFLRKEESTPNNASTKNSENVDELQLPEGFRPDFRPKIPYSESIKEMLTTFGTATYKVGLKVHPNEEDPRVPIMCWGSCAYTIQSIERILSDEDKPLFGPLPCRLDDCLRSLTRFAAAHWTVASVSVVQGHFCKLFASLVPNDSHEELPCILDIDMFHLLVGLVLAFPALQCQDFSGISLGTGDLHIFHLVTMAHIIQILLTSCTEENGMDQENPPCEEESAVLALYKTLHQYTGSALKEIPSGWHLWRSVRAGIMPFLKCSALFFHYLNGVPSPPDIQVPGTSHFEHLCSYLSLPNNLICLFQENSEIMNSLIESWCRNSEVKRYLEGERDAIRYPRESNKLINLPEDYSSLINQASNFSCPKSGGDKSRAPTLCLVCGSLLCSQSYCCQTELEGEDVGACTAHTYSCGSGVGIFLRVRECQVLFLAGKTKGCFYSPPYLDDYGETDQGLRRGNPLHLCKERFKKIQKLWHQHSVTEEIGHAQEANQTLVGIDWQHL

These are yes or no findings as the source states them, for the method shown. In cells and extracts the contact can be indirect. These calls come from enrichment with a bait or labelling near it, and not all partners need be listed. Where a sequence is shown, tags or fusion partners need not be part of it.

The experiment has as its target T1, Myc-DUSP22 (UniProt Q9NRW4).
T1 sequence: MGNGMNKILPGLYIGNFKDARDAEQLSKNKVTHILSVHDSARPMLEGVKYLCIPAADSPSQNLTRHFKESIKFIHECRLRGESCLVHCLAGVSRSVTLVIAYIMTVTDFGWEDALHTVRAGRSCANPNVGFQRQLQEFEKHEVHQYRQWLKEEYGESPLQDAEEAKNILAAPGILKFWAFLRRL
The experiment in a line: affinity purification with mass spectrometry; Myc-DUSP22 immunocomplexes precipitated with anti-Myc agarose beads from lysates of HEK293T cells transfected with vector or Myc-DUSP22; gel bands, trypsin, LC-MS/MS.

In the case of “endogenous UBR2 protein (HEK293T) (from UniProt Q8IWV8 1-1755)”, the binding result was “binds”.
